The values that follow are results of earlier work, collected in patent EP2197279B1, “C10-SUBSTITUTED CAMPTOTHECIN ANALOGS” (BIONUMERIK PHARMACEUTICALS, INC., priority 2007, dated 2009).

For this series the following is noted: closed E-ring lactone form; drug dissolving in 1 mL of water; cited from earlier work.

On to `CC[C@@]1(O)C(=O)OCc2c1cc1n(c2=O)Cc2cc3ccccc3nc2-1` [CPT, (S)-4-Ethyl-4-hydroxy-1H-pyrano[3',4':6,7]indolizino[1,2-b]quinoline-3,14(4H,12H)-dione], for which the solubility in water entry was “approximately 0.1 µg”.
